Test results published in publication PMC10866932.
Results are given in words; binding and its absence hold for the method and conditions named. In cells and extracts the contact can be indirect. Some binding calls cover weakened binding; strength is not graded here.

Amino acid sequences for entries named in this document (tags omitted).
UniProt Q9UJQ4: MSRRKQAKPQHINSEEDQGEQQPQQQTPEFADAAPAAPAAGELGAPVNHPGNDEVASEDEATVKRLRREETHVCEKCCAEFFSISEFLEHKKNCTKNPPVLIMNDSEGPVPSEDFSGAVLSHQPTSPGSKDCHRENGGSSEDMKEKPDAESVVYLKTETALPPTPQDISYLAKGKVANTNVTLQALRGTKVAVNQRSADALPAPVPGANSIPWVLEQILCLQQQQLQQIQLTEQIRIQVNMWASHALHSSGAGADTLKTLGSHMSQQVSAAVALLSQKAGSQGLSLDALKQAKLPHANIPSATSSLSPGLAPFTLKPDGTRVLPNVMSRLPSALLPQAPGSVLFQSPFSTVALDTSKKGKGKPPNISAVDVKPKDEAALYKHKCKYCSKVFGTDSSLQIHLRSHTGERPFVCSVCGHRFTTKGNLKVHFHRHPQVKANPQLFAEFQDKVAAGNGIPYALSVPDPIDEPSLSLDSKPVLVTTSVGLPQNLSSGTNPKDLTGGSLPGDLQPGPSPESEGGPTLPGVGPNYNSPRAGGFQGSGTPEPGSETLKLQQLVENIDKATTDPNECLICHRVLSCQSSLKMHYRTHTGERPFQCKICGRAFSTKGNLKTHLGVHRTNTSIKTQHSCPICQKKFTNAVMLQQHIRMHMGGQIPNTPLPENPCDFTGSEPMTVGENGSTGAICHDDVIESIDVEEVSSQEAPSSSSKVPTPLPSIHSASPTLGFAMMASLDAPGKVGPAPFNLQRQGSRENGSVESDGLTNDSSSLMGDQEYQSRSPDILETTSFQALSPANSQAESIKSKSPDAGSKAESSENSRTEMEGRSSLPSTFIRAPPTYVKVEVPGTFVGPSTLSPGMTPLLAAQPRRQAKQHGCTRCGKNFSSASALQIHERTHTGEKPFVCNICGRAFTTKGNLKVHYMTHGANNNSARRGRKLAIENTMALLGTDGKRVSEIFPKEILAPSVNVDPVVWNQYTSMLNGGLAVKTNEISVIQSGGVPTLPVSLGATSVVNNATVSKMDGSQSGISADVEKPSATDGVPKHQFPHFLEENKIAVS
UniProt Q86U44: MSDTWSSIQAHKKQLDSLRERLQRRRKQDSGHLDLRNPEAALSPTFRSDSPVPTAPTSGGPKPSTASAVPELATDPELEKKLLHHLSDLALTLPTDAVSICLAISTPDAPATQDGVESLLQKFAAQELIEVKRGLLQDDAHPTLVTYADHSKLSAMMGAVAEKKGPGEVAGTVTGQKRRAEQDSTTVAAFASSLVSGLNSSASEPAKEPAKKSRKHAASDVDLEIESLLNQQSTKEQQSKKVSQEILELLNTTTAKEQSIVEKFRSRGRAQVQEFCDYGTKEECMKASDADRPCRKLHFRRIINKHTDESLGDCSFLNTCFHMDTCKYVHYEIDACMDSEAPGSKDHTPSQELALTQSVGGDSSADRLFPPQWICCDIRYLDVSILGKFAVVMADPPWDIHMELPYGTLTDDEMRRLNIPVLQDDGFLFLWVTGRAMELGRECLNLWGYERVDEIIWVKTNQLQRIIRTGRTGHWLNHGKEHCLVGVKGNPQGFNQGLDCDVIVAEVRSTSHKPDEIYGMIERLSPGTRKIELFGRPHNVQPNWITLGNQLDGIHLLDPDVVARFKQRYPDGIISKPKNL

Biological target: Spalt-like transcription factor 4 (SALL4) (human (endogenous in CD44(+)-OSCC cells)) (UniProt Q9UJQ4)
Assay: co-IP; protein samples of CD44(+)-OSCC cells; rabbit anti-SALL4, rabbit anti-METTL3 (10 ug) or IgG overnight at 4 °C, Protein A/G agarose beads, western blotting; IgG as negative control

binding: binds
Substance: methyltransferase-like 3 (METTL3) (from UniProt Q86U44 1-580)
